Experimental data from patent publication US20050148627A1 (priority 2003, published 2005).

Chains of the proteins cited; added tags and fusions are not shown. Residues count along the entry.
UniProt P35354, 18-604 limits assumed: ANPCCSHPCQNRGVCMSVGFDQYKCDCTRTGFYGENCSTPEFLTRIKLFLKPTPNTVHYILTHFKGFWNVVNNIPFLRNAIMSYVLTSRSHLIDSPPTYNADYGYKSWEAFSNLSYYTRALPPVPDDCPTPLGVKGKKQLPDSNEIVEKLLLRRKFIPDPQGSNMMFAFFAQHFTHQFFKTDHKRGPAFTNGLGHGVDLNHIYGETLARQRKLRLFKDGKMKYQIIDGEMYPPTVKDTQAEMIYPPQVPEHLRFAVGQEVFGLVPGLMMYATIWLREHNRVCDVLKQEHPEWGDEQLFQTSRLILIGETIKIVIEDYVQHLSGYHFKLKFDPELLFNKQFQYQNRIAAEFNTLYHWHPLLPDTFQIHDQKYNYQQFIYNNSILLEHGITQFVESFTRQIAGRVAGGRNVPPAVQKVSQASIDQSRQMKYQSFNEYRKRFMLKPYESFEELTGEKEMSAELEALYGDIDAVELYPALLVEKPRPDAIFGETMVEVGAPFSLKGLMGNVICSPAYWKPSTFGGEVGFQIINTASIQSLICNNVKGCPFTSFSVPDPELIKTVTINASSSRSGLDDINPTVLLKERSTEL

Tests used:
COX-2 [1] = molecular target: T1, COX-2 (Homo sapiens, UniProt P35354); assay: Assay for COX-1 and COX-2 Activity (PGE2 ELISA): COX-2; conditions: read-out: hCox-2 IC50; human COX-2; standard assay
COX-2 [2] = molecular target: T1, COX-2; assay: Modified Assay for COX-1 and COX-2 Activity (PGE2 ELISA): COX-2; conditions: read-out: hCox-2 Modified IC50, human COX-2

Row | SMILES | IC50 (COX-2 [1]) | IC50 (COX-2 [2])
1 | Cc1csc(-c2ccc3c(c2)C=C(C(=O)O)C(C(F)(F)F)O3)c1 (centres unmarked) | 6.49 µM and 14.3 µM | –
2 | O=C(O)C1=Cc2cc(-c3ccsc3)ccc2OC1C(F)(F)F (centres unmarked) | – | 22.3 µM and > 100 µM
3 | O=C(O)C1=Cc2cc(-c3cccc4cccnc34)ccc2OC1C(F)(F)F (centres unmarked) | – | 4.9 µM and 1.5 µM

The remaining lines, values ahead:

Row | IC50 (COX-2 [1]) | IC50 (COX-2 [2]) | SMILES
4 | – | 411 nM and 180 nM | O=C(O)C1=Cc2cc(-c3ccc4ccccc4c3)ccc2OC1C(F)(F)F (centres unmarked)
5 | 5.45 µM and > 11.1 µM | – | COc1ccc(-c2ccc3c(c2)C=C(C(=O)O)C(C(F)(F)F)O3)cc1OC (centres unmarked)

Certain results were filed several times, with different values. The list is limited to them. The source may hold further records. Values that stand side by side do not match, cause unknown; they may come from other doses, times, organisms or constructs than stated.
